# Laboratory results reported in publication PMC7864192 (Cancers, 2021).
# Read-outs that look alike come from different tables or passages of the source.
# Columns and labels:
# Conditions in all cases: Homo sapiens, read-out: IC50 in monotherapy
# [1] = test system: GCPA113 T1.III patient-derived AGCT cell line; assay: Cell viability drug screen (Cell Titer Glo 2.0, 72 h), mono- and combination therapy, GCPA113T1.III
# [2] = test system: KGN cells (AGCT cell line); assay: Cell viability drug screen (Cell Titer Glo 2.0, 72 h), mono- and combination therapy, KGN
# [3] = test system: GCPA096 T1.II patient-derived AGCT cell line; assay: Cell viability drug screen (Cell Titer Glo 2.0, 72 h), mono- and combination therapy, GCPA096T1.II
# [4] = test system: GCPA096 T1.I patient-derived AGCT cell line; assay: Cell viability drug screen (Cell Titer Glo 2.0, 72 h), mono- and combination therapy, GCPA096T1.I
# [5] = test system: GCPA096 T1.XV patient-derived AGCT cell line; assay: Cell viability drug screen (Cell Titer Glo 2.0, 72 h), mono- and combination therapy, GCPA096T1.XV
# [6] = test system: GCPA007 T2.IV patient-derived AGCT cell line; assay: Cell viability drug screen (Cell Titer Glo 2.0, 72 h), mono- and combination therapy, GCPA007T2.IV
# [7] = test system: GCPA108 T3.IV patient-derived AGCT cell line; assay: Cell viability drug screen (Cell Titer Glo 2.0, 72 h), mono- and combination therapy, GCPA108T3.IV
# [8] = test system: GCPA096 T1.V patient-derived AGCT cell line; assay: Cell viability drug screen (Cell Titer Glo 2.0, 72 h), mono- and combination therapy, GCPA096T1.V
# [9] = test system: GCPA113 T1.I patient-derived AGCT cell line; assay: Cell viability drug screen (Cell Titer Glo 2.0, 72 h), mono- and combination therapy, GCPA113T1.I
# [10] = test system: GCPA113 T1.II patient-derived AGCT cell line; assay: Cell viability drug screen (Cell Titer Glo 2.0, 72 h), mono- and combination therapy, GCPA113T1.II
# [11] = test system: GCPA007 T2.I patient-derived AGCT cell line; assay: Cell viability drug screen (Cell Titer Glo 2.0, 72 h), mono- and combination therapy, GCPA007T2.I
smiles,measurement,setting,value
CC/C(=C(\c1ccccc1)c1ccc(OCCN(C)C)cc1)c1ccccc1 [Tamoxifen],IC50,[1]; 72 h,11.5 µM
same,IC50,[1],11.5 µM
same,IC50,[2]; 72 h,8.49 µM
same,IC50,[2],8.49 µM
same,IC50,[3],15.8 µM
same,IC50,[4],> 20 µM
same,IC50,[5],16.6 µM
same,IC50,[6]; 72 h,9.15 µM
same,IC50,[6],9.15 µM
same,IC50,[7]; 72 h,7.62 µM
same,IC50,[7],7.62 µM
same,IC50,[8],10.5 µM
same,IC50,[9]; 72 h,14.1 µM
same,IC50,[9],14.1 µM
same,IC50,[10]; 72 h,> 20 µM
same,IC50,[10],> 20 µM
same,IC50,[11],9.29 µM
